Source: ChEMBL document CHEMBL3436046, “Predictive model for L-type channel inhibition: multichannel block in QT prolongation risk assessment” (J Appl Toxicol, 2012)

The chains behind the UniProt entries cited, without tags or fusion partners.
UniProt O35505, whole entry: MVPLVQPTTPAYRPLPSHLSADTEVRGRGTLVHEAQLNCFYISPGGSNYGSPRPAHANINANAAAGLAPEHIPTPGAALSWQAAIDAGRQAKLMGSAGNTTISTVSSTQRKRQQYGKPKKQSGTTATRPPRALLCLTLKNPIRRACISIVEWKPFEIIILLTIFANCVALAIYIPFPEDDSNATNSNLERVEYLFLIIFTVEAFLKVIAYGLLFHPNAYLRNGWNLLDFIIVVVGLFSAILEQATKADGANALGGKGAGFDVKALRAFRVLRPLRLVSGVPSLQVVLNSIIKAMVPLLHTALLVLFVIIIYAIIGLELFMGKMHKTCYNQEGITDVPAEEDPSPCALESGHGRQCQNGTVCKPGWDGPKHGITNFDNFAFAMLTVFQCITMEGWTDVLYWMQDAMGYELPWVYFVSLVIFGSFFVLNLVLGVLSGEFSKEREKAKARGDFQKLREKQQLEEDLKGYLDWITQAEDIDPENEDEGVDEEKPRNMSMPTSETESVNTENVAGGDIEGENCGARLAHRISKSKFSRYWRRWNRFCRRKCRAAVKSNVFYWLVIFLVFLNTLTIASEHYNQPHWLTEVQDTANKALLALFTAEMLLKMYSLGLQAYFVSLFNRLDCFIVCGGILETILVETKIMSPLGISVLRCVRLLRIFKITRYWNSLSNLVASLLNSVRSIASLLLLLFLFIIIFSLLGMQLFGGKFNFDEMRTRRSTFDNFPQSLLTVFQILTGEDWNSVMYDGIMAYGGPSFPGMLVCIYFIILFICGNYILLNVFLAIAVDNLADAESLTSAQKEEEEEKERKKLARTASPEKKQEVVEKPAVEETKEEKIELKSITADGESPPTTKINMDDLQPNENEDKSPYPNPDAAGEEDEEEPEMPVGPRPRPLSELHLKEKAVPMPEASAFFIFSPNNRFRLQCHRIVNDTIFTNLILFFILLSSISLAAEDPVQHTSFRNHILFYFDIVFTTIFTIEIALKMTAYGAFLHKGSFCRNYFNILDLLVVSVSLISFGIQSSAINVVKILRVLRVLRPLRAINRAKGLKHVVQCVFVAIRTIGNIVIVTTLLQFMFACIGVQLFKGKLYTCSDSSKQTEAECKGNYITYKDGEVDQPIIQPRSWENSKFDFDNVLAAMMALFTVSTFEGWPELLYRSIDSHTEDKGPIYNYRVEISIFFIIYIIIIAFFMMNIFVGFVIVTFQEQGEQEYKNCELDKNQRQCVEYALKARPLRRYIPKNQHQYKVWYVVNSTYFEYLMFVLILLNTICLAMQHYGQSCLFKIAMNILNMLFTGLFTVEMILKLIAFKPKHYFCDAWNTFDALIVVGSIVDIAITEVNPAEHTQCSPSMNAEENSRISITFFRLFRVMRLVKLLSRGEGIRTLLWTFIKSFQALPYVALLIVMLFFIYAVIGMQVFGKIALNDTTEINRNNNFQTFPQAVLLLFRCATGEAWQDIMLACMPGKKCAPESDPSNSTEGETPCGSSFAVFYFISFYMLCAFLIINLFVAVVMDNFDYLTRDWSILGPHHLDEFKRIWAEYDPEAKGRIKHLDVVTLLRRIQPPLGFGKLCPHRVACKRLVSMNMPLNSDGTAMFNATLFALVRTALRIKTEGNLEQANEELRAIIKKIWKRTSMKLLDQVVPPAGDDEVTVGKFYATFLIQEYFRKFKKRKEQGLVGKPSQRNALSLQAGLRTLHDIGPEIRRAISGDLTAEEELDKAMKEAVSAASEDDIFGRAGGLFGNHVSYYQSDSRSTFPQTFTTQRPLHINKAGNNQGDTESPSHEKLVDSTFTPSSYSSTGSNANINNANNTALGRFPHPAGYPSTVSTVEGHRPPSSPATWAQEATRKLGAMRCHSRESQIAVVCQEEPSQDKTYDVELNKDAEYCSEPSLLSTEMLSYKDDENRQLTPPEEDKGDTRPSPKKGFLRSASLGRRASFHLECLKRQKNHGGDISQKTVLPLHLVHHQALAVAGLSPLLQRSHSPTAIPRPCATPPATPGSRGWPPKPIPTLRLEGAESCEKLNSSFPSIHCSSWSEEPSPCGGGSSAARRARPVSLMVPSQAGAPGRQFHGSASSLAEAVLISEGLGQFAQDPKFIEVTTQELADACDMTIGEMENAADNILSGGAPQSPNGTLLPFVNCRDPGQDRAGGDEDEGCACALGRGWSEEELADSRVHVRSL

Columns and labels:
[1] = target: T1, Voltage-dependent L-type calcium channel subunit alpha-1C (Cavia porcellus, UniProt O35505); assay: (§1) Inhibition of L-type calcium channel measured using whole-cell patch clamp in guinea pig ventricular myocytes; format: functional, cell-based, Heart, Ventricular myocyte; parameters: ca sol conc 0 mM, temp 35 C
[2] = target: T1, Voltage-dependent L-type calcium channel subunit alpha-1C; assay: as §1; format: functional, cell-based, Heart, Ventricular myocyte; parameters: ca sol conc 1.8 mM, temp 37 C

COC(=O)C1=C(C)NC(C)=C(C(=O)OC)C1c1ccccc1[N+](=O)[O-] [NIFEDIPINE]
IC50 [1]: 300 nM | IC50 [2]: 260 nM
